The source of these data is PubChem BioAssay AID2685 (National Center for Advancing Translational Sciences (NCATS), 2010).

This assay is described as follows: qHTS Assay for Lipid Storage Modulators in Drosophila S3 Cells.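 As to cell number change: cells counted by Cell Tracker Red CMTPX staining in the red channel.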 Conditions: BODIPY lipid droplet fluorescence, 18-24 h; for cell number change: measured here: cell count max response, cells fed with added oleic acid. The procedure, abridged:
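Laser-scanning cytometry quantifies lipid droplet accumulation (500–530 nm total intensity; droplet/cell object ratio) in oleic acid-fed (400 uM added) Drosophila S3 cells treated with a concentration series. 20 uM Triacsin C defined 100% inhibition.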
On the technique in general: Quantitative high-throughput screening tests each substance at several concentrations.

[1] abbreviates: measured here: lipid fluorescence (Fed channel) AC50, cells fed with added oleic acid.
Where [2] appears, read: measured here: cell number channel AC50, cells fed with added oleic acid.

Molecules are shown by their SMILES. This is one part of the list. These are further read-outs of the screen, such as a control signal, another cell line or another target. No call is given for them. Compounds called inactive in the main read-out are mostly missing here. The note in brackets gives the kind of curve behind each potency; many fits are weak.

By AC50 is commonly meant the concentration at which the activity in the assay is half-maximal. Lower therefore signals greater potency. With `CCn1nc(C)c(C2C(C#N)=C(N)OC3=C2C(=O)CC(C)(C)C3)c1C` (centres undefined), the cell number change was -17.6%. For the same compound, under setting [1], the AC50 is 29.1 µM [rising, single point].

On to `CCC1CCCCN1CC(=O)c1c(C)[nH]c2cc(C)ccc12` (centres undefined), for which the cell number change is -9.22%.

In the case of `CC(C)Oc1cccc(C(=O)N/N=C/c2coc3ccccc3c2=O)c1`, the cell number change was 6.07%.

For `COc1ccc(-n2c(=O)cc(N3CCCCCC3)[nH]c2=O)cc1`, the cell number change was -37.7%. For the same compound, the AC50 under setting [2] was 1.64 µM [falling, full curve]. Under setting [1], the AC50 is 0.411 µM [falling, full curve].

Regarding `CC(C)N(Cc1ccccc1)C(=O)COC(=O)/C=C/c1cnc2ccccc2n1`, the cell number change is 43.3%. In addition, the AC50 under setting [2] is 2.59 µM [rising, full curve].

For `CC(C)=CC1C(C(=O)NCCOc2ccccc2)C1(C)C` (centres undefined), the cell number change amounted to 18.6%. Besides, under setting [1], the AC50 was 0.58 µM [rising, single point].

Consider `Cc1nn(Cc2ccc(Cl)cc2)c2sc(C(=O)OCC(N)=O)cc12`, for which the AC50 was 0.92 µM [rising, partial curve] under setting [2] and 4.11 µM [rising, partial curve, poor fit] under setting [1].

For `Cn1cccc1Cc1nnc(SCC(=O)Nc2ccc(F)cc2F)n1-c1ccc(F)cc1`, the cell number change worked out at 36.8%. Further, under setting [2], the AC50 is 29.1 µM [rising, single point].

Consider `CCOc1ccc2nc(N3CCC(C(=O)N4CCN(c5ccccn5)CC4)CC3)sc2c1`, for which the cell number change is 30.1%. Moreover, under setting [2], the AC50 is 14.6 µM [rising, single point].

On to `Cc1ccc(OCCN2CCN(C(=O)CCC(=O)Nc3nnc(C)s3)CC2)cc1`, for which the cell number change is 26%. In addition, under setting [1], the concentration at half-maximal activity (AC50) was 32.6 µM [rising, single point].

Regarding `Cc1ccc(CSCC(Nc2ccc(C(=O)O)cc2[N+](=O)[O-])C(=O)O)cc1` (centres undefined), the cell number change is 8.18%. Moreover, the AC50 under setting [1] was 1.3 µM [falling, full curve, poor fit].

As to `c1coc(CN2CNc3nc4ccccc4n3C2)c1`, the cell number change was 29.7%. For the same compound, under setting [1], the AC50 was 9.2 µM [rising, single point].

`CNC[C@@H](CC1CCCCC1)NC[C@H](CC(C)C)NCCc1cccc(C(F)(F)F)c1`: the cell number change is -35.6%. For the same compound, the concentration at half-maximal activity (AC50) under setting [2] was 23.1 µM [falling, single point].

For `COc1cc(OC)c(OC)cc1CN(C)CCc1ccccn1`, the cell number change turned out to be 1.66%. Further, the concentration at half-maximal activity (AC50) under setting [2] was 5.8 µM [falling, single point]. Also, under setting [1], the AC50 is 8.2 µM [falling, partial curve, poor fit].

Consider `COC(=O)c1ccccc1OC(=O)c1ccc(Br)o1`, for which the cell number change was -32.9%. For the same compound, the AC50 under setting [2] was 0.731 µM [falling, full curve]. The half-maximal activity concentration (AC50) under setting [1] was 2.31 µM [falling, partial curve].

For the compound `CCOc1ccc(N2C(=O)/C(=C\c3ccc(OC)c(O)c3)S(=O)(=O)C2c2cccc([N+](=O)[O-])c2)cc1` (centres undefined), the cell number change is -3.92%. Further, under setting [2], the concentration at half-maximal activity (AC50) was 0.13 µM [falling, full curve, poor fit]. In addition, the AC50 under setting [1] is 0.146 µM [falling, full curve, poor fit].

Regarding `CC(C)C[C@@H](COc1ccccc1)N1CCN(Cc2ccccc2)CCC1=O`, the cell number change turned out to be 22.7%. Moreover, the AC50 under setting [1] is 16.4 µM [falling, single point].

With `Cn1c(=O)c(C(=O)COC(=O)c2cc(C(F)(F)F)nc3ccccc23)c(N)n(Cc2ccccc2)c1=O`, the cell number change worked out at 16%. Also, the concentration at half-maximal activity (AC50) under setting [1] is 0.326 µM [rising, full curve].

For `CCN(CC)S(=O)(=O)c1cccc(C(=O)NC2CCCCC2)c1`, the cell number change was -11.4%. In addition, the AC50 under setting [1] was 11.6 µM [rising, partial curve].

For `COc1ccc(CNC(=O)CN(Cc2ccccc2OC)C(=O)c2csnn2)cc1`, the cell number change worked out at 10.7%.

Turning to `CCOc1ccc(NC(=O)C2CCN(C(=O)C3CC(=O)N(c4ccc(C)cc4)C3)CC2)cc1` (centres undefined), the cell number change is 30.7%. The AC50 under setting [1] was 6.51 µM [rising, single point].

Take `Cc1cccc(NCc2nc3ccccc3n2Cc2ccccc2)c1`: the cell number change stood at 7.55%. Further, the concentration at half-maximal activity (AC50) under setting [2] is 2.31 µM [rising, partial curve].

Take `Cc1ccc(Cl)cc1NC(=S)Nn1cnnc1`: the cell number change worked out at 21.6%. The concentration at half-maximal activity (AC50) under setting [1] was 29.1 µM [rising, single point].

Take `COc1cccc(C(=O)NCCC(=O)NCc2cc(=O)n(C)c(=O)n2C)c1`: the cell number change amounted to 15.8%. For the same compound, the AC50 under setting [1] was 0.13 µM [falling, full curve, poor fit].

On to `CCOC(=O)C1(CC2CC2)CCN(Cc2cnc(-c3ccccc3C)nc2)CC1`, for which the cell number change amounted to 13.2%. Further, the concentration at half-maximal activity (AC50) under setting [1] is 8.2 µM [rising, partial curve].

On to `CC(C)CSc1ccc(S(=O)(=O)NCC(=O)O)cc1[N+](=O)[O-]`, for which the cell number change was -32%. Further, the half-maximal activity concentration (AC50) under setting [2] is 7.31 µM [falling, partial curve, poor fit].

With `COc1ccc(S(=O)(=O)N2CCOCC2)cc1NC(=O)c1cc2ccccc2o1`, the cell number change was determined as 110%. The AC50 under setting [2] was 16.4 µM [rising, partial curve].

With `Cc1cccc(C(=O)NCC(=O)N2CCCCCCC2)c1`, the cell number change is -10.9%. For the same compound, the half-maximal activity concentration (AC50) under setting [1] is 29.1 µM [falling, single point].

On to `O=C(/C=C/c1ccccc1Cl)c1cccnc1`, for which the AC50 under setting [1] was 4.11 µM [falling, partial curve].

In the case of `Cc1nnc(C)n1/N=C/c1cccc([N+](=O)[O-])c1`, the AC50 under setting [1] is 29.1 µM [falling, single point].

Take `C#CCOCCOCCOCCNc1nc(N2CCN(C(=O)Cn3cc(CCCN=C(N)N)nn3)CC2)nc(N2CCN(C(=O)[C@H]([C@@H](C)CC)n3cc(CCCCN)nn3)CC2)n1`: the cell number change is -0.132%. For the same compound, the AC50 under setting [2] is 0.116 µM [falling, full curve, poor fit].

Turning to `COc1cccc(C(=O)NCc2ccccc2OC)c1`, the cell number change came to 5.66%. Further, the half-maximal activity concentration (AC50) under setting [1] is 18.4 µM [rising, single point].

Turning to `O=C1CSc2ccc(S(=O)(=O)CCC(=O)NC3CCCCC3)cc2N1`, the cell number change was -24.8%. The half-maximal activity concentration (AC50) under setting [1] was 29.1 µM [rising, single point].

In the case of `CCn1c(SCC(=O)N/N=C/c2c[nH]c3ccccc23)nnc1-c1ccc(Cl)cc1`, the cell number change was determined as 8.51%. For the same compound, the AC50 under setting [1] is 29.1 µM [rising, single point].

Turning to `CCc1ccc(NC(=O)C2=CC=CN3CCS(=O)(=O)N=C23)cc1`, the cell number change was determined as 14.1%. Further, under setting [1], the AC50 is 7.31 µM [rising, partial curve].

For the compound `CCOc1ccc2nc(SC3CC(=O)N(c4ccc(OC)cc4OC)C3=O)sc2c1` (centres undefined), the cell number change was -55.7%. Besides, under setting [2], the AC50 is 29.1 µM [falling, single point]. Also, under setting [1], the concentration at half-maximal activity (AC50) is 2.06 µM [falling, partial curve].

As to `CCOC(=O)C1CCN(C(=O)COc2ccc(S(=O)(=O)N3CCOCC3)cc2C)CC1`, the cell number change is 2.61%. For the same compound, the half-maximal activity concentration (AC50) under setting [1] was 29.1 µM [falling, single point].
